Measurements reported in patent publication US3966793A (priority 1964, dated 1976).

Experiments:
[1] = test system: mouse; assay: Acute toxicity (M) LD 50; assay type: in vivo; details: PO
Description: (§1) A certain number of the compounds described in the present application have been studied with regard to their action on the central nervous system, as psycholeptics, myorrelaxants and tranquilizers. In addition, the acute toxicity has been determined for a number of these compounds.
(§2) In the series of tests briefly described hereafter, each compound was tested with the use of five or six scaled doses on batches of 10 to 20 animals for each dose; it was thereby possible to determine with sufficient exactitude by the method of probits the 50% effective dose (ED 50), that is to say, the dose for which half the animals are protected and react in a predetermined manner according to a particular action.

[2] = Acute toxicity (M) LD 50; assay type: in vivo; details: in vivo, mouse
Description: as §1, §2

CN1C(=O)CN=C(c2ccccc2)c2cc(Cl)ccc21 [Diazepame, 7-Chloro-1-methyl-5-phenyl-2-oxo-2,3-dihydro-1H-benzo[f]-1,4-diazepine, reference compound]
Acute toxicity LD 50 [1]: 720 mg/kg | LD50 ([2]; IP): 220 mg/kg | LD50 ([2]; SC): 800 mg/kg
